From publication PMC5589848 come the findings set out here.

Protein sequences, listed by entry. Tags and fused reporters are not part of them. Lines headed by an entry give the natural chain unless they say otherwise; changes in a name come on top.
UniProt Q8VI67: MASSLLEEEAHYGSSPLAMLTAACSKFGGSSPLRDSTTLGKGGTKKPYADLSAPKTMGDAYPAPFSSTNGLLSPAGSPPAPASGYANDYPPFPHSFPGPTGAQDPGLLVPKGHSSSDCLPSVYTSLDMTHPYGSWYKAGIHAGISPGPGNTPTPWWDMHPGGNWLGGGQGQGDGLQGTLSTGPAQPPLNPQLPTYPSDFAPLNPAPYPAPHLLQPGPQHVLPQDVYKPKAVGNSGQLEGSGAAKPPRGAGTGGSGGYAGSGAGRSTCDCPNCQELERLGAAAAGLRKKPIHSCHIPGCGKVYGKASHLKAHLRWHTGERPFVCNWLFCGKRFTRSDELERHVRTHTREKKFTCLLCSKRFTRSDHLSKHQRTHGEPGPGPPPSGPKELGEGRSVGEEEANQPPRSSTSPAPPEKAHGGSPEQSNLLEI
UniProt O60479: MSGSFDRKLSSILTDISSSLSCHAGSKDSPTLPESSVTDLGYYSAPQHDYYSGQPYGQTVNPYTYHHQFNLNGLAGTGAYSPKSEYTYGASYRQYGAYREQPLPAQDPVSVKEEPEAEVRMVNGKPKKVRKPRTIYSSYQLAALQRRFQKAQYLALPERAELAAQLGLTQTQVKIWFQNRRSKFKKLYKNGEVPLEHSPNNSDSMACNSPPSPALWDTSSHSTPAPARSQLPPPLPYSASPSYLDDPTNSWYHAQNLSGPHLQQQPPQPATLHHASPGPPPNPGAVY

The exact form of at least one protein or probe is not confirmed. For part of these data: Results from cells or extracts need not show a direct contact. At least one verdict was read from the data and is not stated in words by the source.

In data set [1] the target is Osx (nuclear extract of MD10-F2 cells) (mouse) (UniProt Q8VI67). Description: EMSA. As to conditions: nuclear extract, anti-Osx supershift, cold competitor 100x; EMSA as described previously (binding buffer not given); 5% native polyacrylamide gel in 1x TBE; 100-fold molar excess of unlabeled competitor; protein in an extract; label: 32P.
The target of data set [2] is Dlx3 (recombinant) (UniProt O60479). Description: EMSA. Particulars: anti-Dlx3 supershift, cold competitor 100x; EMSA as described previously (binding buffer not given); 5% native polyacrylamide gel in 1x TBE; 100-fold molar excess of unlabeled competitor; recombinant protein; label: 32P. (In general: Mobility shift assays separate free from complexed probe on a gel.)

“GGGAGTGGGGCGTTATTACAGCC (double strand) [Osx Oligo]”: the binding result in data set [1] is “binds”.
Same read-out and setting: next, “GCTCGCCCCGCCCCGATCTGAAT (double strand) [Osx (Con) Oligo]”: “binds”.
Take “GCGATAATTGCGATAATTGCGAAG (double strand) [Dlx3 (Con) Oligo]”: the binding result in data set [2] is “binds”.
